The supplement of paper PMC12873370
Some of the results follow. Most values come without repeats; read them as rough.

Columns and labels:
[1] = system: MEPP (mouse ovarian epithelium Trp53/Pten KO); experiment: cell viability relative to untreated (fraction); higher = less growth inhibition; details: 5 µM; 3 days
[2] = system: PREPP (mouse prostate epithelium Trp53/Pten KO); experiment: as above; details: 5 µM; 3 days

Compound | cell viability [1] | cell viability [2]
O=c1cc(-c2ccc(O)cc2)oc2cc(O)cc(O)c12 | 1.13 | 1.18
O=C[C@H](O)[C@H]1OC(=O)[C@@H](O)[C@H]1O | 1.53 | 0.96
OC[C@H]1O[C@@H](OCCc2ccc(O)cc2)[C@H](O)[C@@H](O)[C@@H]1O | 1.09 | 0.961
COc1ccc(-c2cc(=O)c3c(O)cc(O[C@@H]4O[C@H](CO[C@@H]5O[C@@H](C)[C@H](O)[C@@H](O)[C@H]5O)[C@@H](O)[C@H](O)[C@H]4O)cc3o2)cc1O | 0.875 | 1.18
Nc1ncnc2c1ncn2C1CC(O)C(CO)O1 (configuration not stated) | 0.834 | 1.44
C[C@@H]1O[C@@H](O[C@@H]2[C@@H](O)[C@H](O)[C@@H](CO)O[C@H]2c2c(O)cc(O)c3c(=O)cc(-c4ccc(O)cc4)oc23)[C@H](O)[C@H](O)[C@H]1O | 0.926 | 0.853
O=c1cc(-c2ccc(O)c(O)c2)oc2cc(O)cc(O)c12 | 0.941 | 1.31
CC(=O)CCC(=O)O | 1.04 | 0.938
CC(C)[C@H](N)C(=O)O | 0.908 | 1.03
NC(=O)c1ccc[n+]([O-])c1 | 0.883 | 1.07
OC[C@H](O)C(O)[C@@H](O)CO | 0.798 | 0.981
O=C(O)Cc1c[nH]c2ccccc12 | 0.862 | 0.888
CC(C)(OCc1nn(Cc2ccccc2)c2ccccc12)C(=O)O | 0.738 | 0.843
CCN1C(=O)C=CC1=O | 1.03 | 1.1
COc1ccc(-c2oc3cc(OC)c(OC)c(O)c3c(=O)c2OC)cc1O | 1.04 | 0.679
OCCc1ccc(O)cc1 | 1.02 | 0.821
O=C1c2ccc(O)cc2C(=O)c2ccc(O)cc21 | 0.926 | 1.22
CC[C@H]1OC(=O)[C@H](C)[C@@H](O[C@H]2C[C@@](C)(OC)[C@@H](O)[C@H](C)O2)[C@H](C)[C@@H](O[C@@H]2O[C@H](C)C[C@H](N(C)C)[C@H]2O)[C@](C)(O)C[C@@H](C)/C(=N\OCOCCOC)[C@H](C)[C@@H](O)[C@]1(C)O | 1.16 | 0.875

Record cards, as listed above:
C[C@@H]1O[C@@H](O[C@@H]2[C@@H](O)[C@H](O)[C@@H](CO)O[C@H]2c2c(O)cc(O)c3c(=O)cc(-c4ccc(O)cc4)oc23)[C@H](O)[C@H](O)[C@H]1O in the list: cell viability [1]: 0.926; cell viability [2]: 0.853
COc1ccc(-c2oc3cc(OC)c(OC)c(O)c3c(=O)c2OC)cc1O in the list: cell viability [1]: 1.04; cell viability [2]: 0.679

Remaining list, next part

Compound | cell viability [1] | cell viability [2]
Clc1ccc(C(Cn2ccnc2)OCc2ccsc2Cl)c(Cl)c1 (configuration not stated) | 0.881 | 0.925
Cc1cc(=O)oc2cc(O)ccc12 | 1.04 | 0.805
C[C@@H]1CC[C@@]2(NC1)O[C@H]1C[C@H]3[C@@H]4CC=C5C[C@@H](O[C@@H]6O[C@H](CO)[C@@H](O[C@@H]7O[C@@H](C)[C@H](O)[C@@H](O)[C@H]7O)[C@H](O)[C@H]6O[C@@H]6O[C@@H](C)[C@H](O)[C@@H](O)[C@H]6O)CC[C@]5(C)[C@H]4CC[C@]3(C)[C@H]1[C@@H]2C | 0.408 | 0.228
NC(=O)N/N=C/c1ccc([N+](=O)[O-])o1 | 1.29 | 0.919
COc1cc(CNC(=O)CCCC/C=C/C(C)C)ccc1O | 0.764 | 1.02
NC(=O)c1[nH]cnc1N | 1.28 | 1.03
Nc1ccccc1S(N)(=O)=O | 0.86 | 1.08
CC1C(=O)OC2C(O)C34C5CC(C(C)(C)C)C36C(OC(=O)C6O)OC4(C(=O)O5)C12O (configuration not stated) | 0.814 | 1.23
C=C[C@]1(C)C[C@@H](OC(=O)CS[C@@H]2C[C@H]3CC[C@@H](C2)N3C)[C@]2(C)[C@H](C)CC[C@]3(CCC(=O)[C@H]32)[C@@H](C)[C@@H]1O | 0.886 | 1.18
CC(C)CCC[C@@H](C)[C@H]1CC[C@H]2[C@@H]3CC=C4C[C@@H](O)CC[C@]4(C)[C@H]3CC[C@]12C | 1.19 | 1.01
CN1CCN(c2cc3c(cc2F)c(=O)c(C(=O)O)cn3-c2ccc(F)cc2)CC1 | 1.12 | 0.803
CC(N)=O | 1.09 | 0.93
COc1cc(O)c(C(C)=O)c(OC)c1 | 0.747 | 1.13
O=C(O[C@@H]1Cc2c(O)cc(O)cc2O[C@@H]1c1ccc(O)c(O)c1)c1cc(O)c(O)c(O)c1 | 0.879 | 0.913
O=C(O)c1ccc(O)c(O)c1O | 0.886 | 0.982
OC[C@H]1O[C@@H](Oc2cc(O)cc(/C=C/c3ccc(O[C@@H]4O[C@H](CO)[C@@H](O)[C@H](O)[C@H]4O)cc3O)c2)[C@H](O)[C@@H](O)[C@@H]1O | 1 | 0.866
CCn1cc(C(=O)O)c(=O)c2cnc(N3CCCC3)nc21 | 1.16 | 1.02
OC[C@H]1O[C@H](O[C@]2(CCl)O[C@H](CCl)[C@@H](O)[C@@H]2O)[C@H](O)[C@@H](O)[C@H]1Cl | 0.994 | 0.924
